Reference: patent US11827701B2, “IL-6 binding molecules” (argenx BV, priority 2012, dated 2023)

B1: 127F1 (24.06) (antibody, V domains shown)
VH: EVQLQESGPGLVKPSQTLSLTCTVSGGSITTRYYAWSWIRQPPGKGLEWIGVIDYDGDTYYSPSLKSRVSISWDTSKNQFSLKLSSVTAADTAVYYCARDPDVVTGFHYDYWGQGTLVTVSS
VL: QSVLTQPPSVSGTPGQRVTISCAGANNDIGTYAYVSWYQQLPGTAPKLLIYKVTTRASGVPDRFSGSKSGNSASLTITGLQSEDEADYYCASYRNFNNAVFGGGTHLTVL
B2: 127E2 (24.06) (antibody, V domains shown)
VH: EVQLQESGPGLVKPSQTLSLTCTVSGGSITTRYYAWSWIRQPPGKGLEWIGVIDYDGDTYYSPSLKSRVTISVDTSKNQFSLQLSSVTAEDTAVYYCARDPDVVTGFHYDYWGQGTQVTVSS
VL: QSALTQPPSVSGSPGQTVTISCAGANNDIGTYAYVSWYQQPPGTAPKLLIYKVTTRASGVPDRFSGSKSGNTASLTISGLQAEDEADYYCASYRNFNNAVFGGGTHLTVL
B3: 68F2 (24.06) (antibody, V domains shown)
VH: EVQLQESGPGLVKPSQTLSLTCTVSGGSITTRYYAWSWIRQPPGKGLEWMGVIDYDGDTYYSPSLKSRTSISWDTSKNQFSLQLSSVTPEDTAVYYCARDPDVVTGFHYDYWGQGTQVTVSS
VL: QSALTQPPLVSGTPGQTVTISCAGANNDIGTYAYVSWYQQLPGTAPKLLIYKVTTRASGIPSRFSGSKSGNTASLTISGLQSEDEADYYCASYRNFNNAVFGRGTHLTVLG
B4: 128G3 (24.06) (antibody, V domains shown)
VH: EVQLQESGPGLVKPSQTLSLTCTVSGGSITTRYYAWSWIRQPPGKGLEWIGVIDYDGDTYYSPSLKSRTTISVDTSKNQFSLKLSSVTPEDTAVYYCARDPDVVTGFHYDYWGQGTMVTVSS
VL: QSALTQPPSVSGAPGQTVTISCAGANNDIGTYAYVSWYQQLPGTAPKLLIYKVTTRASGVPDRFSGSKSGNTASLAISGLQAEDEADYYCASYRNFNNAVFGGGTHLTVL
B5: 129E11 (24.06) (antibody, V domains shown)
VH: EVQLQESGPGLVKPSQTLSLTCTVSGGSITSRYYAWSWIRQPPGKGLEWMGVIDYDGDTYYSPSLKSRVTISVDTSKNQFSLKLSSVTAEDTAVYYCARDPDVVTGFHYDYWGQGTLVTVSS
VL: QSALTQPPLVSGSPGQTVTISCAGANNDIGTYAYVSWYQQLPGTAPKLLIYKVTTRASGVPDRFSGSKSGNTASLTISGLQSEDEADYYCASYRNFNNAVFGTGTKLTVL
B6: 126A3 (24.06) (antibody, V domains shown)
VH: EVQLQESGPGLVKPSQTLSLTCTVSGGSITTRYYAWSWIRQPPGKGLEWIGVIDYDGDTYYSPSLKSRVTISVDTSKNQFSLKLSSVTAADTAVYYCARDPDVVTGFHYDYWGQGTMVTVSS
VL: QSALTQPPSVSGAPGQTVTISCAGANNDIGTYAYVSWYQQLPGTAPKLLIYKVTTRASGIPSRFSGSKSGNTASLTITGLQSEDEADYYCASYRNFNNAVFGRGTKLTVL

Assay: Production level of IgG1 after transient expression in HEK293E cells
Conditions: production #2
Experimental: The VH and VL of the germlined versions of 68F2 were recloned in pUPE Heavy Chain and Light Chain expression vectors, respectively, for transient expression of full-length IgG1 antibodies. After transient expression in HEK293E cells, IgG1 antibodies were purified with protein A and quantified by measurement of OD280. Table 19 below summarizes the production levels of the germlined derivatives together with the levels of the 68F2 parental antibody. Potencies (in pM) were also measured in a 7TD1 based proliferation assay for each antibody.

First: B1
Second: B2
The “Production level HEK #2” value of the first is 1.6-fold higher: 24 µg/mL for the first, 15 µg/mL for the second.

B3 and B4 are within 1.5-fold of each other in “Production level HEK #2” value: 48 µg/mL for the first, 34 µg/mL for the second.

B5 and B6 are within 1.5-fold of each other in “Production level HEK #2” value: 26 µg/mL for the first, 28 µg/mL for the second.
